Data as given in article PMC10866687.
These are yes or no findings as the source states them, for the method shown. For some of these results: Binding seen in cells or lysates may run through a third protein. Some binding calls cover weakened binding; strength is not graded here.

By UniProt entry, the sequences of proteins in these tests, tags left out. Where a name states a change or a piece, a line headed by the entry shows the natural chain unless it says otherwise. Residues count along the entry.
UniProt P46821, residues 2207-2468: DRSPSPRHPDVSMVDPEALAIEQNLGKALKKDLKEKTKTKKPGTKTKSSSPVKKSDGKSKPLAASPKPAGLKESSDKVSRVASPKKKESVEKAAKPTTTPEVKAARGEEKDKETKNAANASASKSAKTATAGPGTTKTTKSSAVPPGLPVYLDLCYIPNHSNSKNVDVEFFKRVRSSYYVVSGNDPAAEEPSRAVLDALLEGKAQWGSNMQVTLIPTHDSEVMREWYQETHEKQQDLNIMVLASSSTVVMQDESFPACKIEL
UniProt Q60598: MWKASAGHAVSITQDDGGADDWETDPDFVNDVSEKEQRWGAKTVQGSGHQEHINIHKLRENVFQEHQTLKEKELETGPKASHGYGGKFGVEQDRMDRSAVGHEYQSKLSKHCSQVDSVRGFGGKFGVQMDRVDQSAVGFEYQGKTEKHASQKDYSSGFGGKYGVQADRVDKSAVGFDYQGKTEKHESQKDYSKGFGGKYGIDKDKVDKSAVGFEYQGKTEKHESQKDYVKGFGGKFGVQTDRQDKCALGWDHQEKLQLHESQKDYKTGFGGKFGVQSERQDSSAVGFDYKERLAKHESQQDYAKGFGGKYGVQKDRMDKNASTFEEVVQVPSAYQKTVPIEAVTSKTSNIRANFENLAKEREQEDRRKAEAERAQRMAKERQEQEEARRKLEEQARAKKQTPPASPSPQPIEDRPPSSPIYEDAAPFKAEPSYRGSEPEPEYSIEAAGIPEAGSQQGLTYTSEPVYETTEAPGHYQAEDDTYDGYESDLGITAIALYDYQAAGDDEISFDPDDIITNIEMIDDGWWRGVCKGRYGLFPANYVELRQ
GST-cortactin SH3 domain fusion protein: residues 488-546 of Q60598
UniProt Q14247: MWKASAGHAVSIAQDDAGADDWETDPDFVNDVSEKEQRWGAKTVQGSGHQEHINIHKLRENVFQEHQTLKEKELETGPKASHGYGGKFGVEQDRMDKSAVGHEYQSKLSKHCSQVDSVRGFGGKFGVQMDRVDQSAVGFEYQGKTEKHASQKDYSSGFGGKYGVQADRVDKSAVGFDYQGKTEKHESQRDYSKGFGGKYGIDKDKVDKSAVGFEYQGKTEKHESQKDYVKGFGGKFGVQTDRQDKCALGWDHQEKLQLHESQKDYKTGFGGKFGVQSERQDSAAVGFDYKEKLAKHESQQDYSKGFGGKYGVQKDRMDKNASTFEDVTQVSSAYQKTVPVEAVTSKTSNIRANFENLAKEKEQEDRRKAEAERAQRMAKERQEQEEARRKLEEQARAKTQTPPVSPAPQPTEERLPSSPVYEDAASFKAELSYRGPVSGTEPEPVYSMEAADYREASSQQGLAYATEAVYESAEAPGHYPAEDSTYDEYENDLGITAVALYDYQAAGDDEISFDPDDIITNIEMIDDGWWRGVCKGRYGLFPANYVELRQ

What was measured:
[1] = molecular target: FLAG-MAP1B-LC1 (wild type) (not stated (human or rat cDNA cloned)) (UniProt P46821); test: co-IP; FLAG-tagged bait on FLAG M2 beads from lysates of transiently transfected 293T cells (1% Triton X-100, 25 mM Tris-HCl pH 7.2, 150 mM NaCl, 1 mM EDTA), eluted with FLAG peptide, immunoblot; in some experiments cells treated with 1 uM latrunculin A and 10 ug/ml nocodazole for 30 min before lysis (interaction weakened); in Fig. S4 D three proteins co-expressed
[2] = molecular target: GST-cortactin SH3 domain fusion protein (UniProt Q60598); test: pull-down; GST- and His-tagged proteins mixed in 0.1% Triton X-100, 25 mM Tris-HCl pH 7.5, 150 mM NaCl, 1 mM EDTA, 4°C overnight; glutathione beads 30 min at 4°C; immunoblot; in Fig. S4 E two His-tagged proteins with one GST fusion; both purified
[3] = molecular target: endogenous cortactin (human (endogenous in MDA-MB-231)) (UniProt Q14247); test: proximity ligation; Duolink PLA on paraformaldehyde-fixed MDA-MB-231 cells with anti-MAP1B-LC1 and anti-cortactin; in some experiments 1 uM latrunculin A and 10 ug/ml nocodazole for 30 min before fixation (proximity weakened)

Substance | binding [1] | other results
cortactin-GFP (wild type), in 293T cells (from UniProt Q60598 1-546) | binds | –
cortactin W525K (SH3 mut)-GFP (from UniProt Q60598 1-546) | no binding | –
His-MAP1B-LC1 (from UniProt P46821 2207-2468) (domain or fragment) | – | binding [2]: binds
endogenous MAP1B-LC1 (from UniProt P46821 2207-2468) | – | binding [3]: binds
